## Drug screen on melanoma cell lines: cell count

From a melanoma drug combination screen (doi:10.1371/journal.pone.0140310); values rounded.

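Human melanoma cell lines in 1,536-well plates were treated with two drugs together for 72 h, then fixed, stained and imaged. Each value is the count of nuclei relative to DMSO-treated wells, in %, so that 100 equals the control. Every drug was used at one fixed concentration, the higher of two screened. No replicate spread is given; individual values may be noisy.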 Only some of the drugs and lines screened are listed, without regard to their results.

Drug key:
sorafenib: CNC(=O)c1cc(Oc2ccc(NC(=O)Nc3ccc(Cl)c(C(F)(F)F)c3)cc2)ccn1 at 2 µM
tamatinib: COc1cc(Nc2ncc(F)c(Nc3ccc4c(n3)NC(=O)C(C)(C)O4)n2)cc(OC)c1OC at 2 µM
KU-0063794: COc1ccc(-c2ccc3c(N4CCOCC4)nc(N4C[C@@H](C)O[C@@H](C)C4)nc3n2)cc1CO at 0.1 µM
MK-2206: NC1(c2ccc(-c3nc4ccn5c(=O)[nH]nc5c4cc3-c3ccccc3)cc2)CCC1 at 2 µM
ENMD-2076: Cc1cc(Nc2cc(N3CCN(C)CC3)nc(/C=C/c3ccccc3)n2)n[nH]1 at 0.2 µM
veliparib: C[C@]1(c2nc3c(C(N)=O)cccc3[nH]2)CCCN1 at 7 µM
OSU-03012: NCC(=O)Nc1ccc(-n2nc(C(F)(F)F)cc2-c2ccc3c(ccc4ccccc43)c2)cc1 at 5 µM
vorinostat: O=C(CCCCCCC(=O)Nc1ccccc1)NO at 0.4 µM
vismodegib: CS(=O)(=O)c1ccc(C(=O)Nc2ccc(Cl)c(-c3ccccn3)c2)c(Cl)c1 at 5 µM
YM155: COCC[n+]1c2c(n(Cc3cnccn3)c1C)C(=O)c1ccccc1C2=O at 0.002 µM

Drugs	C32	WM3619	COLO 829	WM451Lu	COLO 792	COLO 800
KU-0063794 + YM155	102	50.5	82.0	57.9	65.2	37.0
vorinostat + MK-2206	93.9	55.6	81.6	74.2	43.1	40.7
sorafenib + ENMD-2076	98.8	82.2	99.1	80.2	72.4	77.8
tamatinib + YM155	95.5	61.6	63.6	38.3	32.0	50.4
sorafenib + tamatinib	79.2	57.0	96.2	78.6	43.4	34.6
KU-0063794 + MK-2206	90.0	59.7	85.3	89.3	39.3	81.9
vismodegib + tamatinib	92.5	53.9	80.2	63.7	44.9	39.8
vorinostat + OSU-03012	83.0	3.0	68.7	81.4	55.7	36.1
OSU-03012 + KU-0063794	109	68.8	64.6	108	79.9	76.9
YM155 + ENMD-2076	77.3	98.8	56.9	32.4	62.3	29.2
tamatinib + KU-0063794	76.8	47.3	79.5	77.1	37.3	38.5
OSU-03012 + veliparib	71.4	65.4	71.5	106	60.8	61.0
YM155 + OSU-03012	68.3	44.0	50.4	43.0	58.6	23.0
vismodegib + YM155	105	113	66.4	25.8	61.9	34.9
vismodegib + vorinostat	121	82.4	83.1	56.9	76.9	70.8
ENMD-2076 + vorinostat	77.7	59.1	59.5	76.6	63.5	39.7
sorafenib + veliparib	78.3	80.6	112	111	123	146
KU-0063794 + sorafenib	84.3	108	87.7	76.6	85.4	86.7
sorafenib + MK-2206	92.0	74.5	106	127	61.3	78.5
tamatinib + vorinostat	72.8	58.8	68.0	59.3	26.2	14.8

The first 2 entries again:

| Drugs | C32 | WM3619 | COLO 829 | WM451Lu | COLO 792 | COLO 800 |
|---|---|---|---|---|---|---|
| KU-0063794 + YM155 | 102 | 50.5 | 82.0 | 57.9 | 65.2 | 37.0 |
| vorinostat + MK-2206 | 93.9 | 55.6 | 81.6 | 74.2 | 43.1 | 40.7 |